Source: publication PMC8814139
Results are given in words; binding and its absence hold for the method and conditions named. For some assays here: Binding seen in cells or lysates may run through a third protein. Some entries that bind do so weakly or less than the wild type.

Sequences of proteins named here, by UniProt entry; tags and fusion partners are left off. A change or cut given only in a name is not applied to a line headed by its entry. A line that says so, or that is headed by a name, gives the form on record, which may keep a tag or linker. Residues count along the entry.
HA-Cdt 2-345 (O88566, residues 2-345): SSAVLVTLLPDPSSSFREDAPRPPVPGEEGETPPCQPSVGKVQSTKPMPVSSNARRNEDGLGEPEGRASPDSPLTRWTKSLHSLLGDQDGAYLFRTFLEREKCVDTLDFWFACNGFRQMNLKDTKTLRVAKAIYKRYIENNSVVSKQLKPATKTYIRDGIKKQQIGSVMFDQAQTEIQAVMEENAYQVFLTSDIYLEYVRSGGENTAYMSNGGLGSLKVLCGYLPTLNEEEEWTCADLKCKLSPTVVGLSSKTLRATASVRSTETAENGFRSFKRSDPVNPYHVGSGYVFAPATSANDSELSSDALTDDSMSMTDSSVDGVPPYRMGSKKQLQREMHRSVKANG
GST-Cdt 2-210 (O88566, residues 2-210): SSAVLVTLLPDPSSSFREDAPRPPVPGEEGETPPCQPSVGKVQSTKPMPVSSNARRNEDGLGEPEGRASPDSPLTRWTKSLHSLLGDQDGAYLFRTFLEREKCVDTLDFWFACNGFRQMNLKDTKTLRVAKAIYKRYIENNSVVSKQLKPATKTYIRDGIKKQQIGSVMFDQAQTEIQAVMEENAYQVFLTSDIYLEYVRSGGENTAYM
GST-RGS^Cdt (Conductin aa 67-210) (O88566, residues 67-210): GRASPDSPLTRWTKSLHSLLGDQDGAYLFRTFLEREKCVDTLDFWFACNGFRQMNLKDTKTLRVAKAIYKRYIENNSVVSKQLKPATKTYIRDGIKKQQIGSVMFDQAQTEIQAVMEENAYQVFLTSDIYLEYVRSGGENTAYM
GFP-RGS^Cdt (Conductin aa 71-211) (O88566, residues 71-211): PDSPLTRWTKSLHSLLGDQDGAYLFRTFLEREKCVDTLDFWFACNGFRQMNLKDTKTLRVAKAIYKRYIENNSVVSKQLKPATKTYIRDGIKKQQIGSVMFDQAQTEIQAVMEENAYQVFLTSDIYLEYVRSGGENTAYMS
GFP-RGS^Cdt QVL (L99R Q188P V189S) (O88566, form named): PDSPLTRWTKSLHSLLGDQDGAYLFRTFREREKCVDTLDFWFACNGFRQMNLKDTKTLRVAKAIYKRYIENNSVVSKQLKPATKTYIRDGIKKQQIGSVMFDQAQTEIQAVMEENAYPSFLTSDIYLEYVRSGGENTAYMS
GFP-Cdt 2–345 QVL (L99R Q188P V189S) (O88566, form named): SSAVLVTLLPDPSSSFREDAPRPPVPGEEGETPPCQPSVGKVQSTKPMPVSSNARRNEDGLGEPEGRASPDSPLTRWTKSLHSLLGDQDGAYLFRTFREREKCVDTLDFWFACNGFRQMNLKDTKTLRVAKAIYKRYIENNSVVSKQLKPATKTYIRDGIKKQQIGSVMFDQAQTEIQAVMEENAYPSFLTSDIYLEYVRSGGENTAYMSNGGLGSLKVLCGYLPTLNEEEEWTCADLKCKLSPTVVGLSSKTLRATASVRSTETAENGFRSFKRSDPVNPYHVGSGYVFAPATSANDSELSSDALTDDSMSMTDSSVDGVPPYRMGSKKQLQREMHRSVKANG
UniProt P04899: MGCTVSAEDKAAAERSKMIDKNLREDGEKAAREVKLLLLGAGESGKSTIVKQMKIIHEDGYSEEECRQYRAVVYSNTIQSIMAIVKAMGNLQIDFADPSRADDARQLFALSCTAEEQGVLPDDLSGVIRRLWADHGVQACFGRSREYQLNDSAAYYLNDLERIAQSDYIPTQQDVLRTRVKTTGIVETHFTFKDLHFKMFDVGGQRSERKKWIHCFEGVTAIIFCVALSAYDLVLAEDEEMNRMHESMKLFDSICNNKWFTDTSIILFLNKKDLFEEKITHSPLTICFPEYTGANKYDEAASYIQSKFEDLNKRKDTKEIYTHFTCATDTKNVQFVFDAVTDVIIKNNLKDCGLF

Columns and labels:
[1] = molecular target: GST-RGS^Cdt (Conductin aa 67-210) (UniProt O88566); assay: pull-down; in vitro synthesized Gαi2-GFP proteins incubated with purified recombinant GST-RGS^Cdt in PBS with 1% Triton X-100, 10% glycerol and 10 µM GTP; glutathione beads; Western blotting; only the target purified
Gαi2-GST-HA = Gαi2-GST-HA (UniProt P04899); assay: pull-down; GST-tagged Gα proteins precipitated on glutathione beads from lysates of HEK293T cells co-transfected with GFP-RGS^Cdt; lysis in 1% Triton X-100 and 10% glycerol in PBS; co-precipitated GFP-RGS^Cdt quantified by Western blotting
[2] = molecular target: GFP-Cdt 2–345 QVL (L99R Q188P V189S) (UniProt O88566); assay: sucrose density ultracentrifugation; lysates of transfected HEK293T cells (Triton X-100 buffer) on a linear 12.5-50% sucrose gradient, 201,000g, 16 h, 25 °C; fractions analysed by Western blotting
[3] = molecular target: GFP-Cdt 2–345 QVL (L99R Q188P V189S) (UniProt O88566); assay: native gel or EMSA; lysates of transfected HEK293T cells separated by polyacrylamide gel electrophoresis under native conditions (no SDS), Western blotting; with or without co-expressed Gαi proteins or AlF4^- treatment
GFP-Cdt 2-345 [4] = molecular target: GFP-Cdt 2-345 (UniProt O88566); assay: sucrose density ultracentrifugation; lysates of transfected HEK293T cells (Triton X-100 buffer) on a linear 12.5-50% sucrose gradient, 201,000g, 16 h, 25 °C; fractions analysed by Western blotting
GFP-Cdt 2-345 [5] = molecular target: GFP-Cdt 2-345 (UniProt O88566); assay: native gel or EMSA; lysates of transfected HEK293T cells separated by polyacrylamide gel electrophoresis under native conditions (no SDS), Western blotting; with or without co-expressed Gαi proteins or AlF4^- treatment
Gαi2 G184S = Gαi2 G184S (UniProt P04899); assay: pull-down; GST-tagged Gα proteins precipitated on glutathione beads from lysates of HEK293T cells co-transfected with GFP-RGS^Cdt; lysis in 1% Triton X-100 and 10% glycerol in PBS; co-precipitated GFP-RGS^Cdt quantified by Western blotting
HA-Cdt 2-345 = HA-Cdt 2-345 (UniProt O88566); assay: native gel or EMSA; lysates of transfected HEK293T cells separated by polyacrylamide gel electrophoresis under native conditions (no SDS), Western blotting; with or without co-expressed Gαi proteins or AlF4^- treatment
GST-Cdt 2-210 = GST-Cdt 2-210 (UniProt O88566); assay: pull-down; 1 µM His-Gαi2 preloaded with 10 µM GDP, GDP + 30 µM AlCl3 and 5 mM KF, or 10 µM GTPγS, incubated with 1 µM GST proteins in TBS with 0.1% bovine serum albumin, 1 h at RT; glutathione beads; co-precipitated His-Gαi2 by Western blotting; both purified
[6] = molecular target: GST-RGS^Cdt (Conductin aa 67-210) (UniProt O88566); assay: as above

Gαi2-GFP T328S (in vitro synthesized) (from UniProt P04899 1-355)
binding [1]: binds

GFP-RGS^Cdt QVL (L99R Q188P V189S) (from UniProt O88566 71-211) (domain or fragment)
binding (Gαi2-GST-HA): binds

Gαi2-GFP G293E (in vitro synthesized) (from UniProt P04899 1-355)
binding [1]: binds

GFP-Cdt 2–345 QVL (L99R Q188P V189S) (from UniProt O88566 2-345) (domain or fragment)
binding [2]: binds
binding [3]: binds

GFP-Cdt 2-345 (from UniProt O88566 2-345) (domain or fragment)
binding (GFP-Cdt 2-345 [4]): binds
binding (GFP-Cdt 2-345 [5]): binds

Gαi2-GFP (in vitro synthesized) (from UniProt P04899 1-355)
binding [1]: binds

GFP-RGS^Cdt (Conductin aa 71-211) (from UniProt O88566 71-211) (domain or fragment)
binding (Gαi2 G184S): binds
binding (Gαi2-GST-HA): binds

HA-Cdt 2-345 (from UniProt O88566 2-345) (domain or fragment)
binding (HA-Cdt 2-345): binds

Gαi2-GFP K210N (in vitro synthesized) (from UniProt P04899 1-355)
binding [1]: binds

RGS6xHis-Gαi2 (from UniProt P04899 1-355)
binding (GST-Cdt 2-210): binds
binding [6]: binds
